Results: the supplement of paper PMC9233669
Variants at the floor of the assay are shown more often than the library holds them.

Assays:
biotinyl-Phe-oxazolone = test: self-aminoacylation, catalytic enhancement (BFO) (fold over background); higher = more active; k-Seq, kA / k0A0; sequences stand for … in GGGAAUGGAUCCACAUCUACGAAUUC…UUCACUGCAGACUUGACGAAGCUG
In short: (§1)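 Mutagenized RNA pools (0.43 μM; 21-nt variable region) were treated with 2–1250 μM of each biotinyl-aminoacyl-oxazolone. Conditions were 50 μL HEPES/NaCl/KCl/MgCl2/CaCl2 buffer, 5% acetonitrile, pH 6.9–7.0, room temperature, 90 minutes. Catalytic enhancement, the median kA relative to the uncatalyzed rate, was derived from streptavidin capture, qPCR and Illumina sequencing.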

biotinyl-Met-oxazolone = test: self-aminoacylation, catalytic enhancement (BMO) (fold over background); higher = more active; k-Seq, kA / k0A0; sequences stand for … in GGGAAUGGAUCCACAUCUACGAAUUC…UUCACUGCAGACUUGACGAAGCUG
In short: as §1

biotinyl-Val-oxazolone = test: self-aminoacylation, catalytic enhancement (BVO) (fold over background); higher = more active; k-Seq, kA / k0A0; sequences stand for … in GGGAAUGGAUCCACAUCUACGAAUUC…UUCACUGCAGACUUGACGAAGCUG
In short: as §1

biotinyl-Leu-oxazolone = test: self-aminoacylation, catalytic enhancement (BLO) (fold over background); higher = more active; k-Seq, kA / k0A0; sequences stand for … in GGGAAUGGAUCCACAUCUACGAAUUC…UUCACUGCAGACUUGACGAAGCUG
In short: as §1

biotinyl-Ile-oxazolone = test: self-aminoacylation, catalytic enhancement (BIO) (fold over background); higher = more active; k-Seq, kA / k0A0; sequences stand for … in GGGAAUGGAUCCACAUCUACGAAUUC…UUCACUGCAGACUUGACGAAGCUG
In short: as §1

biotinyl-Trp-oxazolone = test: self-aminoacylation, catalytic enhancement (BWO) (fold over background); higher = more active; k-Seq, kA / k0A0; sequences stand for … in GGGAAUGGAUCCACAUCUACGAAUUC…UUCACUGCAGACUUGACGAAGCUG
In short: as §1

| Sequence | self-aminoacylation (biotinyl-Phe-oxazolone) | self-aminoacylation (biotinyl-Met-oxazolone) | self-aminoacylation (biotinyl-Val-oxazolone) | self-aminoacylation (biotinyl-Leu-oxazolone) | self-aminoacylation (biotinyl-Ile-oxazolone) | self-aminoacylation (biotinyl-Trp-oxazolone) |
| --- | --- | --- | --- | --- | --- | --- |
| AUUGCCAUGGUCAUCGAGUGA [Fam2.1 aminoacylation ribozyme variant] | 53.5 | 9.29 | 4.81 | 10.1 | 4.75 | 11.6 |
| AUUGCCCUGGUCAUCGAGUAA [Fam2.1 aminoacylation ribozyme variant] | 28.4 | 8.54 | 4.02 | 8.75 | 3.56 | 8.07 |
| AUUGCCCUGGUCCUCGAGUGA [Fam2.1 aminoacylation ribozyme variant] | 23.4 | 3.5 | 2.05 | 3.42 | 1.94 | 3.66 |
| AUUUACCUAGGUUAUCGGGUG [Fam2.2 aminoacylation ribozyme variant] | 23.2 | 3.44 | 2.4 | 3.48 | 2.29 | 3.72 |
| AUUUACUUAGGUCAUCGGGUG [Fam2.2 aminoacylation ribozyme variant] | 32.2 | 4.85 | 3.18 | 5.78 | 2.91 | 4.45 |
| AUUUCCCUGGUCAACGAGUGA [Fam2.1 aminoacylation ribozyme variant] | 42.4 | 6.93 | 3.91 | 6.99 | 3.9 | 8.23 |
| AUUUCCCUGGUCAUCGACUGA [Fam2.1 aminoacylation ribozyme variant] | 0.739 | 0.966 | 1.1 | 0.989 | 1.09 | 0.625 |
| AUUUCCCUGGUUAUCGAGUGA [Fam2.1 aminoacylation ribozyme variant] | 58.2 | 9.01 | 4.39 | 8.65 | 4.12 | 10.9 |
| AUUUCCCUUGUCAUCGAGUGA [Fam2.1 aminoacylation ribozyme variant] | 46 | 7.14 | 4.17 | 7.73 | 3.62 | 8.99 |
| CAACACUUCAAGCAAUCGUUC [Fam1B.1 aminoacylation ribozyme variant] | 1.47 | 0.81 | 0.828 | 0.648 | 0.845 | 0.748 |
| CAACACUUCAAGCAAUGGGUC [Fam1B.1 aminoacylation ribozyme variant] | 0.677 | 0.834 | 0.664 | 0.882 | 0.858 | 0.833 |
| CAACACUUCAAGCAGUCGGUC [Fam1B.1 aminoacylation ribozyme variant] | 0.982 | 0.901 | 1.04 | 0.979 | 0.986 | 0.839 |
| CAACACUUCACGCAAUCGGUC [Fam1B.1 aminoacylation ribozyme variant] | 0.818 | 0.988 | 1.24 | 1.06 | 1.25 | 1.11 |
| CAACACUUGAAGCAAUCGGUC [Fam1B.1 aminoacylation ribozyme variant] | 0.601 | 0.731 | 0.828 | 0.842 | 0.911 | 0.696 |
| CAACAUUUCAAGCAAUCGGUC [Fam1B.1 aminoacylation ribozyme variant] | 1.81 | 0.947 | 1.1 | 0.929 | 1.04 | 1.54 |
| CAACUUCAAACAAUCGGACUG [Fam1A.1 aminoacylation ribozyme variant] | 19.2 | 0.952 | 0.945 | 1.41 | 1.26 | 10.6 |
| CAACUUCAAACAAUCGGUCUC [Fam1A.1 aminoacylation ribozyme variant] | 75.3 | 1.74 | 1.5 | 1.9 | 1.63 | 37.7 |
| CAGCUUGCUAAUAGUCGCAAG [Fam3.1 aminoacylation ribozyme variant] | 2.54 | 1.72 | 1.86 | 1.89 | 1.82 | 1.72 |
| CAGUAUGCUAAUAGUCGCAAG [Fam3.1 aminoacylation ribozyme variant] | 1.61 | 1.34 | 0.949 | 1.52 | 1.2 | 1.28 |
| CAGUUUACUAAUAGUCGCAAG [Fam3.1 aminoacylation ribozyme variant] | 1.87 | 1.39 | 1.09 | 1.17 | 1.29 | 1.27 |
| CAGUUUGCUAAUAUUCGCAAG [Fam3.1 aminoacylation ribozyme variant] | 0.904 | 1.26 | 1.2 | 1.19 | 1.38 | 1.24 |
| CCAAACUUCAAGCAAUCCGUC [Fam1B.1 aminoacylation ribozyme variant] | 0.895 | 1.02 | 1.31 | 1.09 | 1.27 | 0.8 |
| CCAAAGUUCAAGCAAUCGGUC [Fam1B.1 aminoacylation ribozyme variant] | 1.35 | 1.32 | 1.4 | 1.28 | 1.35 | 1.17 |
| CCACAAUCCAAGCAAUCGGUC [Fam1B.1 aminoacylation ribozyme variant] | 1.12 | 1.17 | 1.33 | 1.14 | 1.2 | 0.895 |
| CCACAAUUCCAGCAAUCGGUC [Fam1B.1 aminoacylation ribozyme variant] | 1.2 | 1.63 | 1.66 | 1.51 | 1.83 | 1.18 |
| CCACACAUCAUGCAAUCGGUC [Fam1B.1 aminoacylation ribozyme variant] | 1.04 | 0.465 | 0.893 | 0.639 | 0.907 | 0.729 |

| Sequence | self-aminoacylation (biotinyl-Phe-oxazolone) | self-aminoacylation (biotinyl-Met-oxazolone) | self-aminoacylation (biotinyl-Val-oxazolone) | self-aminoacylation (biotinyl-Leu-oxazolone) | self-aminoacylation (biotinyl-Ile-oxazolone) | self-aminoacylation (biotinyl-Trp-oxazolone) |
| --- | --- | --- | --- | --- | --- | --- |
| CCACACCUCAAGCAAUCGUUC [Fam1B.1 aminoacylation ribozyme variant] | 1.11 | 0.779 | 0.914 | 0.739 | 0.934 | 0.894 |
| CCACACCUCAAGCAAUGGGUC [Fam1B.1 aminoacylation ribozyme variant] | 0.543 | 0.705 | 1.07 | 0.99 | 0.965 | 0.995 |
| CCACACCUCAAGUAAUCGGUC [Fam1B.1 aminoacylation ribozyme variant] | 1.31 | 1.15 | 1.01 | 1.3 | 1.27 | 1.4 |
| CCACACGUAAAGCAAUCGGUC [Fam1B.1 aminoacylation ribozyme variant] | 0.954 | 1.02 | 1.51 | 0.993 | 1.23 | 0.912 |
| CCACACGUCAAGCAACCGGUC [Fam1B.1 aminoacylation ribozyme variant] | 0.895 | 1.4 | 2 | 1.51 | 1.19 | 0.823 |
| CCACACGUCAAGCAAUAGGUC [Fam1B.1 aminoacylation ribozyme variant] | 1.1 | 0.765 | 0.831 | 0.652 | 0.655 | 0.587 |
| CCACACGUCAAGCAAUCGGAC [Fam1B.1 aminoacylation ribozyme variant] | 0.667 | 1.14 | 2.03 | 1.36 | 1.53 | 0.681 |
| CCACACGUCAAGCAAUCGGUA [Fam1B.1 aminoacylation ribozyme variant] | 1.03 | 1.52 | 1.98 | 1.29 | 1.25 | 1.09 |
| CCACACGUCAAGCGAUCGGUC [Fam1B.1 aminoacylation ribozyme variant] | 1.06 | 1.14 | 2.3 | 1.11 | 1.21 | 1.61 |
| CCACACGUCAAGGAAUCGGUC [Fam1B.1 aminoacylation ribozyme variant] | 0.659 | 1.19 | 1.25 | 1.19 | 0.962 | 0.976 |
| CCACACGUCAAGUAAUCGGUC [Fam1B.1 aminoacylation ribozyme variant] | 0.888 | 0.957 | 1.16 | 0.992 | 0.93 | 0.752 |
| CCACACUACAACCAAUCGGUC [Fam1B.1 aminoacylation ribozyme variant] | 0.544 | 0.712 | 0.751 | 0.836 | 0.729 | 0.672 |
| CCACACUACAAGAAAUCGGUC [Fam1B.1 aminoacylation ribozyme variant] | 0.911 | 1.01 | 0.8 | 0.716 | 0.898 | 1.2 |
| CCACACUACAAGCAAUCGGGC [Fam1B.1 aminoacylation ribozyme variant] | 1.38 | 0.957 | 1.36 | 1.03 | 1.45 | 1.16 |
| CCACACUACACGCAAUCGGUC [Fam1B.1 aminoacylation ribozyme variant] | 1.02 | 0.829 | 1 | 0.771 | 1.01 | 0.906 |
| CCACACUCCAAGCUAUCGGUC [Fam1B.1 aminoacylation ribozyme variant] | 0.875 | 0.97 | 1.09 | 1.05 | 1.23 | 1.08 |
| CCACACUCGAAGCAAUCGGUC [Fam1B.1 aminoacylation ribozyme variant] | 1.07 | 1.1 | 1.11 | 0.764 | 1.2 | 0.864 |
| CCACACUGCAAGCAAUCCGUC [Fam1B.1 aminoacylation ribozyme variant] | 0.969 | 1.04 | 1.33 | 0.969 | 1.42 | 0.998 |
| CCACACUGCAAGCAAUCGGCC [Fam1B.1 aminoacylation ribozyme variant] | 20.5 | 2.93 | 5.56 | 1.99 | 3.29 | 3.9 |
| CCACACUUAAAGCAAUCGGAC [Fam1B.1 aminoacylation ribozyme variant] | 0.601 | 0.763 | 0.915 | 0.625 | 0.878 | 0.847 |
| CCACACUUAAAGCAAUCGGCC [Fam1B.1 aminoacylation ribozyme variant] | 7.34 | 1.71 | 1.97 | 2.15 | 1.72 | 1.7 |
| CCACACUUAAAGCAAUCGGUC [Fam1B.1 aminoacylation ribozyme variant] | 0.957 | 0.714 | 0.941 | 0.707 | 0.88 | 0.708 |
| CCACACUUCAAGAAAUAGGUC [Fam1B.1 aminoacylation ribozyme variant] | 0.733 | 0.46 | 0.537 | 0.41 | 0.487 | 0.419 |
| CCACACUUCAAGCAAGAGGUC [Fam1B.1 aminoacylation ribozyme variant] | 0.639 | 0.62 | 0.579 | 0.588 | 0.647 | 0.459 |
| CCACACUUCAAGCAAGCGAUC [Fam1B.1 aminoacylation ribozyme variant] | 0.617 | 0.504 | 0.637 | 0.526 | 0.583 | 0.313 |
